Results reported in patent US20110118239A1, “PREPARATION AND ENANTIOMERIC SEPARATION OF 7-(3-PYRIDINYL)-1,7-DIAZASPIRO[4.4]NONANE AND NOVEL SALT FORMS OF THE RACEMATE AND ENANTIOMERS” (Targacept, Inc., priority 2008, published 2011).
pKi: −log10 of the molar value. Some results were stated once for a whole list of compounds, not compound by compound.

Biological target: human α4β2 NNRs (Homo sapiens, UniProt P17787+P43681)
Experiment: Binding to α4β2 NNRs (text statement, species not stated)
Conditions: read-out: Ki for α4β2 NNRs

In the case of c1cncc(N2CCC3(CCCN3)C2)c1 (racemic) [Compound C, 7-(3-pyridinyl)-1,7-diazaspiro[4.4]nonane], the pKi was over 7.00.
